In test [1] the target is T1, WT-APX (murine wild-type TTP fused N-terminally to APEX2) (mouse) (UniProt P22893).
T1 sequence: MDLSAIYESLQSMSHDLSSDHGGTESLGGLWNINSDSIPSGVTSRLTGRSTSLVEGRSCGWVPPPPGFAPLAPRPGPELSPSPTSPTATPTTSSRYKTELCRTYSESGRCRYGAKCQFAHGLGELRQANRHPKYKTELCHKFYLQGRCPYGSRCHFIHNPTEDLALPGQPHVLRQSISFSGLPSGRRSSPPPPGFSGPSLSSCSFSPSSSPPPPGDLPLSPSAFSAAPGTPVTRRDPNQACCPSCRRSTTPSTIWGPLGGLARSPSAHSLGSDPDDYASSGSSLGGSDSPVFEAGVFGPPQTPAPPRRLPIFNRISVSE
The experiment in a line: proximity labelling.

By UniProt entry, the sequences of proteins in these tests, tags left out.
UniProt Q96QE3: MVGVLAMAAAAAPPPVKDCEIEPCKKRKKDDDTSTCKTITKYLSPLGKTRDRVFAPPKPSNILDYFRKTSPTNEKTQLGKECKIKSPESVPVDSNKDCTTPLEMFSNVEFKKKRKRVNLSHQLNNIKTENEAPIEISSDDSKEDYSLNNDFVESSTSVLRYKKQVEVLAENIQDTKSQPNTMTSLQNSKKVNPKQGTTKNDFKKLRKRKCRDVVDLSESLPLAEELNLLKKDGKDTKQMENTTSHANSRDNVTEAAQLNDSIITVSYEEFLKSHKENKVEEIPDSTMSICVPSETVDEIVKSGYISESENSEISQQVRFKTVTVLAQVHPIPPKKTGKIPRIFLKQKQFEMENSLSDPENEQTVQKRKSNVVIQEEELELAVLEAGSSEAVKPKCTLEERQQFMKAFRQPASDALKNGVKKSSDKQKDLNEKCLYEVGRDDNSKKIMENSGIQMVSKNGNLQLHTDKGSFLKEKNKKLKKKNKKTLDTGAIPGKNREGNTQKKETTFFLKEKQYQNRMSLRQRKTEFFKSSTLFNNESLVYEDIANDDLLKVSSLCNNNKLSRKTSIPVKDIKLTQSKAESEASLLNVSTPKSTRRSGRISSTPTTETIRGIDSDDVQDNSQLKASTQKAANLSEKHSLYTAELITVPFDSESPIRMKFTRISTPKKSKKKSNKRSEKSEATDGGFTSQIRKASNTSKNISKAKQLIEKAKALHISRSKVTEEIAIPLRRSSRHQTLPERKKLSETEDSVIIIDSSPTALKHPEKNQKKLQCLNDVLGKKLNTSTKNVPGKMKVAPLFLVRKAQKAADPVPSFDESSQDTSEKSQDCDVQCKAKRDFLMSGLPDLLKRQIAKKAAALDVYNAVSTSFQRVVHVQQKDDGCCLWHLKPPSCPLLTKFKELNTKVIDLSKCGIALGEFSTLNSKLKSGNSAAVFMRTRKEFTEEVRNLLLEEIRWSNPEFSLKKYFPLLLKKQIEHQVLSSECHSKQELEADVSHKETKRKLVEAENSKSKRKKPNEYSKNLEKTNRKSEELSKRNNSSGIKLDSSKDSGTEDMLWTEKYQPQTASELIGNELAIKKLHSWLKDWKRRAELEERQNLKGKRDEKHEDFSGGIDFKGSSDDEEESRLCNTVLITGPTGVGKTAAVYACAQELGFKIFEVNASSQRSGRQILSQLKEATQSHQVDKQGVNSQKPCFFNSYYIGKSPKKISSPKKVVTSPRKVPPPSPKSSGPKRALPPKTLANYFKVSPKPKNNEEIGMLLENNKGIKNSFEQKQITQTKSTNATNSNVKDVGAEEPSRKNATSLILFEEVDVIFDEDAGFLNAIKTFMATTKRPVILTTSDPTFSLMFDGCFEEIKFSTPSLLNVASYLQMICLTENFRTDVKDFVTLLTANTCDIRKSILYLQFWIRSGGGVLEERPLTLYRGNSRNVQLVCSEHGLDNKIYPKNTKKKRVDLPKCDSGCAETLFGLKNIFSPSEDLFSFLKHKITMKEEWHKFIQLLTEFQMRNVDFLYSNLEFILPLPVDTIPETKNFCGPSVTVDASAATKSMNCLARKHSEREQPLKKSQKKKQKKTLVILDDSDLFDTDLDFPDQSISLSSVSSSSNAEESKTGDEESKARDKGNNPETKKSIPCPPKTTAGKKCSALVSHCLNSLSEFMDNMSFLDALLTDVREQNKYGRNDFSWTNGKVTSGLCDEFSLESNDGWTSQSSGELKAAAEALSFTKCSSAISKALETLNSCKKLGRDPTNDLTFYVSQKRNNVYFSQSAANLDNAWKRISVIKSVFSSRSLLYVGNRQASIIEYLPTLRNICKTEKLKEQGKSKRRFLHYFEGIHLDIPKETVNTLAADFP
UniProt O75175: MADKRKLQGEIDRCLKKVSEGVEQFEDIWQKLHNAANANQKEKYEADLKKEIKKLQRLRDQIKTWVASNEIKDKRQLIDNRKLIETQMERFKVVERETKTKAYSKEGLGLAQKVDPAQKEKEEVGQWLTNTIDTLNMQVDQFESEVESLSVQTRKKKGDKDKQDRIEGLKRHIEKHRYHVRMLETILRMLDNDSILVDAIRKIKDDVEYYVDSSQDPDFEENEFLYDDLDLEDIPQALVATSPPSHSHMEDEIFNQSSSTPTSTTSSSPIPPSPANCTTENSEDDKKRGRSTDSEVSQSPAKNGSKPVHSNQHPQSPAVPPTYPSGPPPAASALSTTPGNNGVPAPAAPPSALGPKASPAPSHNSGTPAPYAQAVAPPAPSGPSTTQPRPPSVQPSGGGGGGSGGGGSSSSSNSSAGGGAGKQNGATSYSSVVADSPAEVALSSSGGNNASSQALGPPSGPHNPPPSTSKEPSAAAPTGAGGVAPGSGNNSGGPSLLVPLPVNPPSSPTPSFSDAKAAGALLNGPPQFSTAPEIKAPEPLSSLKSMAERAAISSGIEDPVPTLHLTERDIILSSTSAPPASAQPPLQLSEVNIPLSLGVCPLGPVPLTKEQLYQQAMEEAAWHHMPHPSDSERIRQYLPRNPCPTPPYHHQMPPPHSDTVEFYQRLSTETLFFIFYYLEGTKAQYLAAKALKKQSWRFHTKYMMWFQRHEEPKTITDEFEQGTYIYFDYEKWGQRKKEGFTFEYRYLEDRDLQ
UniProt Q96F86: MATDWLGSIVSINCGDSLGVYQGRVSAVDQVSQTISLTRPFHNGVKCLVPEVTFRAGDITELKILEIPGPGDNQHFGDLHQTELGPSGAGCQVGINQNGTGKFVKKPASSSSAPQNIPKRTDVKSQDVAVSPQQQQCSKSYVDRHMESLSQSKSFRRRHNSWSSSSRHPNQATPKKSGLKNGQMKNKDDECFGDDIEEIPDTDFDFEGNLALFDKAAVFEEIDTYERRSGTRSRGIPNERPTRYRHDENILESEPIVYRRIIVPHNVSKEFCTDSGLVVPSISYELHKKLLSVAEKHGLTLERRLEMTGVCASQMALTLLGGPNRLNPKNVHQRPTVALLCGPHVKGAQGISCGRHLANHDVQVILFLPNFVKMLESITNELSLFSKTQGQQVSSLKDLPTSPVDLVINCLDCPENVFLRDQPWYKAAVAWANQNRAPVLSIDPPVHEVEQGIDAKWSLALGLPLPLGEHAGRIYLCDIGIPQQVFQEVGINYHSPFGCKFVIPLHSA
UniProt Q8IZH2: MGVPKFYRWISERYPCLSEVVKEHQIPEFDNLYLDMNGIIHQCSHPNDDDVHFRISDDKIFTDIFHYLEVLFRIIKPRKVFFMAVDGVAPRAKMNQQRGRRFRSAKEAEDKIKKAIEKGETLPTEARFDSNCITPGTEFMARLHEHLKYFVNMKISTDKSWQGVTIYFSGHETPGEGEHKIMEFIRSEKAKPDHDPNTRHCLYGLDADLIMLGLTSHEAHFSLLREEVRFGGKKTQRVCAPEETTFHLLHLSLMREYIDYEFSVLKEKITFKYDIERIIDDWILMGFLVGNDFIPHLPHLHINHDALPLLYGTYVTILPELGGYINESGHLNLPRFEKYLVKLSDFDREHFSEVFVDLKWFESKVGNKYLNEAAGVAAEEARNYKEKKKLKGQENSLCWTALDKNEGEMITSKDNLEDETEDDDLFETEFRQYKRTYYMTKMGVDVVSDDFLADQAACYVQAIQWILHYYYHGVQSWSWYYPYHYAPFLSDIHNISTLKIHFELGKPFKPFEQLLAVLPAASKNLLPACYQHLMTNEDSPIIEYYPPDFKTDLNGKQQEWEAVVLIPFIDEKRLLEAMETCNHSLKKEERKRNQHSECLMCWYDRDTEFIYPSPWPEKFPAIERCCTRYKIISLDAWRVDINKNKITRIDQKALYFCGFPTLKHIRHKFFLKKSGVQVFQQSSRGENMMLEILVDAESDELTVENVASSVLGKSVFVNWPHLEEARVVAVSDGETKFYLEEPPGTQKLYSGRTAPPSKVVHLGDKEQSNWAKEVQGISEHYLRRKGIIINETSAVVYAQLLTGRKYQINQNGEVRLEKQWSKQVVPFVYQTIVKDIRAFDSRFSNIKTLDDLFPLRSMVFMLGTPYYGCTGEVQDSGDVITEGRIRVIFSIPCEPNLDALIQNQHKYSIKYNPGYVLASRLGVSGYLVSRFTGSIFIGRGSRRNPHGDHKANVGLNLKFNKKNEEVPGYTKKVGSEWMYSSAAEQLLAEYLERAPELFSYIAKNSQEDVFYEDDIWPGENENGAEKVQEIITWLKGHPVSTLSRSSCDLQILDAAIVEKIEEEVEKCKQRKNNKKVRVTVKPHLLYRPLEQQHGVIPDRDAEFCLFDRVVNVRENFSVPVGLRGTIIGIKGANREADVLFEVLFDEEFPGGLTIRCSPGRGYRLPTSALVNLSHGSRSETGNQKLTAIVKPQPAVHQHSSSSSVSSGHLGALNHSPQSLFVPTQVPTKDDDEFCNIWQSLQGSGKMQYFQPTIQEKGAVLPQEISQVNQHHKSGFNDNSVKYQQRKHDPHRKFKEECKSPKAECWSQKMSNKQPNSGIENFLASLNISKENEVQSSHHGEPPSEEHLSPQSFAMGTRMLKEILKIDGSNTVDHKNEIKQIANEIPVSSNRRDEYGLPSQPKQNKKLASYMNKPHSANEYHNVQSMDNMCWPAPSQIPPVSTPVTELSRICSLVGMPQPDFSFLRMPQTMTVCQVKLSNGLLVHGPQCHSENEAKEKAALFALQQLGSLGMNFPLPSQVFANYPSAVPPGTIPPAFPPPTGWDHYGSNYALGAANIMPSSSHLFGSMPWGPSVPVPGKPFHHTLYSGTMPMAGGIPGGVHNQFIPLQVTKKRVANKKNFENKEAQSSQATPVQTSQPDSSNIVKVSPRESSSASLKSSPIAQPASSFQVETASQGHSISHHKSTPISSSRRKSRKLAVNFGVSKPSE

Test [2] addresses T2, L1 WT-APX (ZFP36L1 WT fused N-terminally to APEX2) (mouse) (UniProt P23950).
T2 sequence: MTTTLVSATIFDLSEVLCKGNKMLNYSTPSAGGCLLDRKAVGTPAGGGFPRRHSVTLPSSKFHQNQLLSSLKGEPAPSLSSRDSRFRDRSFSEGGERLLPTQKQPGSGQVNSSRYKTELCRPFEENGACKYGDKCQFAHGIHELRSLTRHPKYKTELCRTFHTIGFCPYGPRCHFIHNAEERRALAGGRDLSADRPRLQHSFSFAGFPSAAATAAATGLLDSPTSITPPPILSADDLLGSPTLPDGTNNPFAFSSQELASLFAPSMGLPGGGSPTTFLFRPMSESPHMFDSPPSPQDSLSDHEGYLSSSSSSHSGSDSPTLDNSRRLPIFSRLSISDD
Put plainly: proximity labelling.

Test [3] concerns the target L1 TZF^mut-APX (RNA binding-deficient ZFP36L1 TZF^mut fused N-terminally to APEX2) (mouse) (UniProt P23950). Put plainly: proximity labelling.
Test [4] concerns the target T3, TZF^mut-APX (RNA binding-deficient tandem zinc finger TTP mutant C116R/C139R fused N-terminally to APEX2) (mouse) (UniProt P22893).
T3 sequence: T1 sequence with C116R, C139R
The experiment in a line: proximity labelling.

Test [5] has as its target T3, TZF^mut-APX (RNA binding-deficient tandem zinc finger TTP mutant C116R/C139R fused N-terminally to APEX2) (mouse). The experiment in a line: proximity labelling. This is another data set of the same source.
Test [6] concerns the target T1, WT-APX (murine wild-type TTP fused N-terminally to APEX2) (mouse). Put plainly: condition: only cells treated with anisomycin.
Test [7] has the same target. The experiment in a line: proximity labelling. The source holds these as a separate data set.
Test [8] has the same target. Put plainly: proximity labelling. The source holds these as a separate data set.
In test [9] the target is T2, L1 WT-APX (ZFP36L1 WT fused N-terminally to APEX2) (mouse). Put plainly: proximity labelling. The source holds these as a separate data set.
Test [10] deals with L1 TZF^mut-APX (RNA binding-deficient ZFP36L1 TZF^mut fused N-terminally to APEX2) (mouse) (UniProt P23950). Put plainly: proximity labelling. This is another data set of the same source.

Where a chain is given by its changes, count along the chain named. Like-named read-outs stand apart in the source and are kept apart here. These are yes or no findings as the source states them, for the method shown. Binding seen in cells or lysates may run through a third protein. These calls come from enrichment with a bait or labelling near it, and not all partners need be listed. For some assays here: No binding means not detected with the bait. For some assays here: Tags and fused reporters may be left off the sequences shown.

From doi:10.1101/2023.11.30.569392 come the findings set out here.

For the molecule ATAD5 (from UniProt Q96QE3 1-1844), the binding entry in [1] is recorded as “binds”.
In the case of CNOT3 (from UniProt O75175 1-753), the binding result is “binds” in [2] and “no binding” in test [3].
In the case of DCP2 (from UniProt Q8IU60 1-420), the binding result in test [4] is reported as “no binding”; in [1], “binds”; in [5], “no binding”; in test [6], “no binding”.
With EDC3 (from UniProt Q96F86 1-508), the binding entry in [1] is given as “binds”; in [2], “binds”; in test [3], “no binding”; in test [6], “no binding”; in test [7], “binds”.
On to “XRN1 exonuclease (from UniProt Q8IZH2 1-1706)”, for which the binding result is on record as “no binding” in test [4], “binds” in test [1], “no binding” in test [5] and “no binding” in [6].

B1: MAGEB2 (protein, UniProt O15479 1-319)
chain: MPRGQKSKLRAREKRRKARDETRGLNVPQVTEAEEEEAPCCSSSVSGGAASSSPAAGIPQEPQRAPTTAAAAAAGVSSTKSKKGAKSHQGEKNASSSQASTSTKSPSEDPLTRKSGSLVQFLLYKYKIKKSVTKGEMLKIVGKRFREHFPEILKKASEGLSVVFGLELNKVNPNGHTYTFIDKVDLTDEESLLSSWDFPRRKLLMPLLGVIFLNGNSATEEEIWEFLNMLGVYDGEEHSVFGEPWKLITKDLVQEKYLEYKQVPSSDPPRFQFLWGPRAYAETSKMKVLEFLAKVNGTTPCAFPTHYEEALKDEEKAGV
Take B1: in test [8], the binding result is on record as “binds”.

B2: EDC4 (protein, UniProt Q6P2E9 1-1401)
chain: MASCASIDIEDATQHLRDILKLDRPAGGPSAESPRPSSAYNGDLNGLLVPDPLCSGDSTSANKTGLRTMPPINLQEKQVICLSGDDSSTCIGILAKEVEIVASSDSSISSKARGSNKVKIQPVAKYDWEQKYYYGNLIAVSNSFLAYAIRAANNGSAMVRVISVSTSERTLLKGFTGSVADLAFAHLNSPQLACLDEAGNLFVWRLALVNGKIQEEILVHIRQPEGTPLNHFRRIIWCPFIPEESEDCCEESSPTVALLHEDRAEVWDLDMLRSSHSTWPVDVSQIKQGFIVVKGHSTCLSEGALSPDGTVLATASHDGYVKFWQIYIEGQDEPRCLHEWKPHDGRPLSCLLFCDNHKKQDPDVPFWRFLITGADQNRELKMWCTVSWTCLQTIRFSPDIFSSVSVPPSLKVCLDLSAEYLILSDVQRKVLYVMELLQNQEEGHACFSSISEFLLTHPVLSFGIQVVSRCRLRHTEVLPAEEENDSLGADGTHGAGAMESAAGVLIKLFCVHTKALQDVQIRFQPQLNPDVVAPLPTHTAHEDFTFGESRPELGSEGLGSAAHGSQPDLRRIVELPAPADFLSLSSETKPKLMTPDAFMTPSASLQQITASPSSSSSGSSSSSSSSSSSLTAVSAMSSTSAVDPSLTRPPEELTLSPKLQLDGSLTMSSSGSLQASPRGLLPGLLPAPADKLTPKGPGQVPTATSALSLELQEVEPLGLPQASPSRTRSPDVISSASTALSQDIPEIASEALSRGFGSSAPEGLEPDSMASAASALHLLSPRPRPGPELGPQLGLDGGPGDGDRHNTPSLLEAALTQEASTPDSQVWPTAPDITRETCSTLAESPRNGLQEKHKSLAFHRPPYHLLQQRDSQDASAEQSDHDDEVASLASASGGFGTKVPAPRLPAKDWKTKGSPRTSPKLKRKSKKDDGDAAMGSRLTEHQVAEPPEDWPALIWQQQRELAELRHSQEELLQRLCTQLEGLQSTVTGHVERALETRHEQEQRRLERALAEGQQRGGQLQEQLTQQLSQALSSAVAGRLERSIRDEIKKTVPPCVSRSLEPMAGQLSNSVATKLTAVEGSMKENISKLLKSKNLTDAIARAAADTLQGPMQAAYREAFQSVVLPAFEKSCQAMFQQINDSFRLGTQEYLQQLESHMKSRKAREQEAREPVLAQLRGLVSTLQSATEQMAATVAGSVRAEVQHQLHVAVGSLQESILAQVQRIVKGEVSVALKEQQAAVTSSIMQAMRSAAGTPVPSAHLDCQAQQAHILQLLQQGHLNQAFQQALTAADLNLVLYVCETVDPAQVFGQPPCPLSQPVLLSLIQQLASDLGTRTDLKLSYLEEAVMHLDHSDPITRDHMGSVMAQVRQKLFQFLQAEPHNSLGKAARRLSLMLHGLVTPSLP
In the case of B2, the binding entry is recorded as “binds” in test [9] and “no binding” in [10].

B3: NFATC1 (protein, UniProt O95644 1-943)
chain: MPSTSFPVPSKFPLGPAAAVFGRGETLGPAPRAGGTMKSAEEEHYGYASSNVSPALPLPTAHSTLPAPCHNLQTSTPGIIPPADHPSGYGAALDGGPAGYFLSSGHTRPDGAPALESPRIEITSCLGLYHNNNQFFHDVEVEDVLPSSKRSPSTATLSLPSLEAYRDPSCLSPASSLSSRSCNSEASSYESNYSYPYASPQTSPWQSPCVSPKTTDPEEGFPRGLGACTLLGSPRHSPSTSPRASVTEESWLGARSSRPASPCNKRKYSLNGRQPPYSPHHSPTPSPHGSPRVSVTDDSWLGNTTQYTSSAIVAAINALTTDSSLDLGDGVPVKSRKTTLEQPPSVALKVEPVGEDLGSPPPPADFAPEDYSSFQHIRKGGFCDQYLAVPQHPYQWAKPKPLSPTSYMSPTLPALDWQLPSHSGPYELRIEVQPKSHHRAHYETEGSRGAVKASAGGHPIVQLHGYLENEPLMLQLFIGTADDRLLRPHAFYQVHRITGKTVSTTSHEAILSNTKVLEIPLLPENSMRAVIDCAGILKLRNSDIELRKGETDIGRKNTRVRLVFRVHVPQPSGRTLSLQVASNPIECSQRSAQELPLVEKQSTDSYPVVGGKKMVLSGHNFLQDSKVIFVEKAPDGHHVWEMEAKTDRDLCKPNSLVVEIPPFRNQRITSPVHVSFYVCNGKRKRSQYQRFTYLPANVPIIKTEPTDDYEPAPTCGPVSQGLSPLPRPYYSQQLAMPPDPSSCLVAGFPPCPQRSTLMPAAPGVSPKLHDLSPAAYTKGVASPGHCHLGLPQPAGEAPAVQDVPRPVATHPGSPGQPPPALLPQQVSAPPSSSCPPGLEHSLCPSSPSPPLPPATQEPTCLQPCSPACPPATGRPQHLPSTVRRDESPTAGPRLLPEVHEDGSPNLAPIPVTVKREPEELDQLYLDDVNEIIRNDLSSTSTHS
As to B3, the binding entry in test [8] is “binds”.
